Measured values published in PMC8458281, “Computational modeling and experimental validation of the EPI-X4/CXCR4 complex allows rational design of small peptide antagonists” (Communications Biology, 2021).
Results are given in words; binding and its absence hold for the method and conditions named. Some results given as binding are weak or reduced against the parent protein; the word gives no strength.

Protein sequences, listed by entry. Tags and fused reporters are not part of them. Lines headed by an entry give the natural chain unless they say otherwise; changes in a name come on top.
UniProt P61073: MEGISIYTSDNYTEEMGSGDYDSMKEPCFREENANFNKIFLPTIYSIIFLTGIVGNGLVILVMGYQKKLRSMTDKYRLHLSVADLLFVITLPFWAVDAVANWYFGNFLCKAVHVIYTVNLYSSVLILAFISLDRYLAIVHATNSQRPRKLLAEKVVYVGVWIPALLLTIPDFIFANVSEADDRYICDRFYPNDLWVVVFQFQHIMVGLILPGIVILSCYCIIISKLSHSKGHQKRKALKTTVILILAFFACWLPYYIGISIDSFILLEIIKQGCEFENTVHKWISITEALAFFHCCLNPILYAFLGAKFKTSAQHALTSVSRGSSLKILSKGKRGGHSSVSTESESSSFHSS

What was measured:
CXCR4 D187E (human) = CXCR4 D187E (human) (UniProt P61073); experiment: flow cytometry on cells; 12G5 antibody competition on 293T cells transiently transfected with CXCR4 wt or mutants (IRES-eGFP vector), eGFP-positive cells gated; serially diluted peptide with a constant concentration of CXCR4 antibody clone 12G5, 2 h; bound antibody read; IC50 by nonlinear …; only the binder purified
CXCR4 D262A (human) = CXCR4 D262A (human) (UniProt P61073); experiment: as above
[1] = molecular target: CXCR4 wt (transfected 293T cells) (human) (UniProt P61073); experiment: as above
[2] = molecular target: C-X-C motif chemokine receptor 4 (CXCR4) on SupT1 cells (human (endogenous in SupT1)) (UniProt P61073); experiment: flow cytometry on cells; 12G5 antibody competition on SupT1 cells; peptides in PBS with APC-conjugated 12G5 at a concentration close to its EC50, 4 °C, 2 h; MFI normalized to PBS control; IC50 by nonlinear regression; only the binder purified

Binder | binding (CXCR4 D187E (human)) | binding (CXCR4 D262A (human)) | binding [1] | binding [2]
IVRWSKKVPCVS (also called EPI-X4 WSC02; source: synthetic peptide (Fmoc solid-phase synthesis, HPLC-purified)) [WSC02] | binds | binds | binds | 
ILRWSRKLPCVS (source: synthetic peptide (Fmoc solid-phase synthesis, HPLC-purified)) [EPI-X4 JM#21] | binds | binds | binds | 
LVRYTKK [EPI-X4 408–414] |  |  |  | binds
